Experimental data: patent publication US20260226152A1
These are yes or no findings as the source states them, for the method shown.

Biological target: Cynomolgus monkey IL-23 (cynomolgus monkey)
Assay: SPR (Biacore), antibody captured on Protein A/G, cytokine as analyte, 25 C

B1: IL-18 control 1 (antibody, V domains shown)
VH: QVQLVQSGAEVKKPGASVKVSCKVSGEISTGYYFHWVRQAPGKGLEWMGRIDPEDDSTKYAERFKDRVTMTEDTSTDTAYMELSSLRSEDTAVYYCTTWRIYRDSSGRPFYVMDAWGQGTLVTVSS
VL: DIQMTQSPSSVSASVGDRVTITCLASEDIYTYLTWYQQKPGKAPKLLIYGANKLQDGVPSRFSGSGSGTDYTLTISSLQPEDFATYYCLQGSKFPLTFGQGTKLEIK
binding: no binding (tested: 0.04-25 nM analyte)
